Measured values taken from paper PMC5777258, “Phosphorylation of human enhancer filamentation 1 (HEF1) stimulates interaction with Polo-like kinase 1 leading to HEF1 localization to focal adhesions” (The Journal of Biological Chemistry, 2017).
These are yes or no findings as the source states them, for the method shown. Binding seen in cells or lysates may run through a third protein. Binding can be weak; no strength is given. For part of these data: Sequences can lack the tags named with a protein.

Key:
[1] = biological target: GST-Plk1 PBD WT (Polo box domain of Plk1); assay: pull-down; bead-conjugated GST-PBD WT or AM incubated with HeLa total cell lysates (thymidine-treated, asynchronous or nocodazole-treated) for 1 h at 4 °C, washed with TBSN; immunoblot with anti-HEF1 antibody; only the target purified
[2] = biological target: GST-Plk1 PBD WT (Polo box domain of Plk1); assay: pull-down; bead-conjugated GST-Plk1 PBD WT incubated with lysates of HEK293T cells transfected with FLAG-HEF1 constructs for 1 h at 4 °C, washed with TBSN; immunoblot with anti-FLAG antibody; in Figure 4B also with co-transfected Myc-CK1delta or Myc-CK1epsilon; only the target purified

Binder | binding [1] | binding [2]
HEF1, endogenous (protein, UniProt Q14511 1-834) MKYKNLMARALYDNVPECAEELAFRKGDILTVIEQNTGGLEGWWLCSLHGRQGIVPGNRVKLLIGPMQETASSHEQPASGLMQQTFGQQKLYQVPNPQAAPRDTIYQVPPSYQNQGIYQVPTGHGTQEQEVYQVPPSVQRSIGGTSGPHVGKKVITPVRTGHGYVYEYPSRYQKDVYDIPPSHTTQGVYDIPPSSAKGPVFSVPVGEIKPQGVYDIPPTKGVYAIPPSACRDEAGLREKDYDFPPPMRQAGRPDLRPEGVYDIPPTCTKPAGKDLHVKYNCDIPGAAEPVARRHQSLSPNHPPPQLGQSVGSQNDAYDVPRGVQFLEPPAETSEKANPQERDGVYDVPLHNPPDAKGSRDLVDGINRLSFSSTGSTRSNMSTSSTSSKESSLSASPAQDKRLFLDPDTAIERLQRLQQALEMGVSSLMALVTTDWRCYGYMERHINEIRTAVDKVELFLKEYLHFVKGAVANAACLPELILHNKMKRELQRVEDSHQILSQTSHDLNECSWSLNILAINKPQNKCDDLDRFVMVAKTVPDDAKQLTTTINTNAEALFRPGPGSLHLKNGPESIMNSTEYPHGGSQGQLLHPGDHKAQAHNKALPPGLSKEQAPDCSSSDGSERSWMDDYDYVHLQGKEEFERQQKELLEKENIMKQNKMQLEHHQLSQFQLLEQEITKPVENDISKWKPSQSLPTTNSGVSAQDRQLLCFYYDQCETHFISLLNAIDALFSCVSSAQPPRIFVAHSKFVILSAHKLVFIGDTLTRQVTAQDIRNKVMNSSNQLCEQLKTIVMATKMAALHYPSTTALQEMVHQVTDLSRNAQLFKRSLLEMATF | binds | 
FLAG-HEF1 T6 (truncation mutant, C-terminal region, aa 710-834) (domain or fragment, UniProt Q14511 710-834) FYYDQCETHFISLLNAIDALFSCVSSAQPPRIFVAHSKFVILSAHKLVFIGDTLTRQVTAQDIRNKVMNSSNQLCEQLKTIVMATKMAALHYPSTTALQEMVHQVTDLSRNAQLFKRSLLEMATF |  | binds
FLAG-HEF1 T6 S735A (domain or fragment, UniProt Q14511 710-834) FYYDQCETHFISLLNAIDALFSCVSAAQPPRIFVAHSKFVILSAHKLVFIGDTLTRQVTAQDIRNKVMNSSNQLCEQLKTIVMATKMAALHYPSTTALQEMVHQVTDLSRNAQLFKRSLLEMATF |  | binds
